No constants are given. Whether binding was seen depends on the method and setting. Binding seen in cells or lysates may run through a third protein. A result given as binding can be weak or reduced; the word gives no strength. Where a sequence is shown, tags or fusion partners need not be part of it.
Molecular target: Xenopus laevis DYRK1B (xDYRK1B), untagged (Xenopus laevis)
Assay: co-IP; HeLa cells co-expressing FLAG-hDCAF7 and untagged human or Xenopus DYRK1B; DYRK1B immunoprecipitated; DCAF7 detected by Western blot

binding: binds
B1: FLAG-hDCAF7 (protein, UniProt P61962 1-342)
chain: MSLHGKRKEIYKYEAPWTVYAMNWSVRPDKRFRLALGSFVEEYNNKVQLVGLDEESSEFICRNTFDHPYPTTKLMWIPDTKGVYPDLLATSGDYLRVWRVGETETRLECLLNNNKNSDFCAPLTSFDWNEVDPYLLGTSSIDTTCTIWGLETGQVLGRVNLVSGHVKTQLIAHDKEVYDIAFSRAGGGRDMFASVGADGSVRMFDLRHLEHSTIIYEDPQHHPLLRLCWNKQDPNYLATMAMDGMEVVILDVRVPCTPVARLNNHRACVNGIAWAPHSSCHICTAADDHQALIWDIQQMPRAIEDPILAYTAEGEINNVQWASTQPDWIAICYNNCLEILRV
